This is an account of results in paper PMC12398534.

These are yes or no findings as the source states them, for the method shown. In cells and extracts the contact can be indirect. A result given as binding can be weak or reduced; the word gives no strength.

The assay has as its target T1, PPP1R3B (human (endogenous in FaDu or 5-8F cells)) (UniProt Q86XI6).
T1 sequence: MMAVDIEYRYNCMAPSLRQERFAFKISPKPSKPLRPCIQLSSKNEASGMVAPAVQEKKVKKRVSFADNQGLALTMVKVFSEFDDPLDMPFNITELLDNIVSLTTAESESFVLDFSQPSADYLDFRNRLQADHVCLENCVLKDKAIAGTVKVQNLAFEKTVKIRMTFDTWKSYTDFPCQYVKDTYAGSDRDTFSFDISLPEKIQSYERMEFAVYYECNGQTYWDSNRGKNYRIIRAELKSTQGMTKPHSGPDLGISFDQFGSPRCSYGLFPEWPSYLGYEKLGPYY
Briefly: co-IP; cell lysates incubated with AminoLink resin coupled to antibodies against PPP1R3B, PP1C or PHKG2; eluates analysed by Western blotting; cells with different PHKG2 expression levels.

Regarding “PP1C (human (endogenous in FaDu or 5-8F cells)) (enzyme)”, the binding result is “binds”.
